Assay results reported in paper PMC7446811.
These are yes or no findings as the source states them, for the method shown. Binding seen in cells or lysates may run through a third protein. Binding can be weak; no strength is given.

Molecular target: glutathione S-transferase-tagged LsTUB (GST-TUB) (Laodelphax striatellus)
Assay: pull-down; GST-LsTUB (500 μg) with glutathione-Sepharose beads and viruliferous SBPH extract (1 mg) in 50 mM Tris, 150 mM NaCl, 0.1% Triton X-100, pH 8.0, 4°C, 16 h; blot with anti-NS3 and anti-GST; only the target purified

B1: RSV NS3 in extracts of viruliferous SBPH (protein, UniProt P26658 1-211)
chain: MNVFTSSVGSVEFDHPLLLENDLTSLSINCDDVHCSSRALCYIYDIHSSRHPSIDEHQFLRLLHGPDDAVTLGSFLKTLIWILSHDKNLPEEYRLPTIMMSSSYVKFFTEVKPRPPSTNCWTCRMSKDNLPFTVPSVKGFPPDAELYIVPISDHDGKPVKFDNRKTLYRSPSKKRHKYVISSDKPPLSARYVKYVDSSALESLPGSSPAVL
binding: binds
